Laboratory results from publication PMC4653027.
No constants are given. Whether binding was seen depends on the method and setting. Binding seen in cells or lysates may run through a third protein. Some results given as binding are weak or reduced against the parent protein; the word gives no strength.

Sequences of proteins named here, by UniProt entry; tags and fusion partners are left off.
UniProt Q96EB6: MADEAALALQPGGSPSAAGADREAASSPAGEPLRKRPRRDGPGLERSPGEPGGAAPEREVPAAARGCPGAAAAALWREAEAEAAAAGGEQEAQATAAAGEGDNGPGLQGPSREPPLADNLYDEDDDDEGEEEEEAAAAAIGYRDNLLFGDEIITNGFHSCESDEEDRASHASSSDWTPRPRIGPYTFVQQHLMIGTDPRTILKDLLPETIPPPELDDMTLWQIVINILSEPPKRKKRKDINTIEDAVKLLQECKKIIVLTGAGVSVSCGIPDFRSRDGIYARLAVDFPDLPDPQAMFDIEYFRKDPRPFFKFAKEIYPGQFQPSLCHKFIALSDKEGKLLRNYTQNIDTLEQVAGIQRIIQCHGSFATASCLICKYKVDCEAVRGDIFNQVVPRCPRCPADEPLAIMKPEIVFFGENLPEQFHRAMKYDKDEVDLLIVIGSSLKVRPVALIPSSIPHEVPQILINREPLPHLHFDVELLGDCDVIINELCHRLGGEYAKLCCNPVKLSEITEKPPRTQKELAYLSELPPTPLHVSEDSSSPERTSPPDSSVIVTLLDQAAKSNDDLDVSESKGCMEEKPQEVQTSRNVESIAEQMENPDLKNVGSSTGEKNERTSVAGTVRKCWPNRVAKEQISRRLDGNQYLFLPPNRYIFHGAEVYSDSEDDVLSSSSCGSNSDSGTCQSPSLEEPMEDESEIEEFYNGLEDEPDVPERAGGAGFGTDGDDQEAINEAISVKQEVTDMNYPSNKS
UniProt P00441: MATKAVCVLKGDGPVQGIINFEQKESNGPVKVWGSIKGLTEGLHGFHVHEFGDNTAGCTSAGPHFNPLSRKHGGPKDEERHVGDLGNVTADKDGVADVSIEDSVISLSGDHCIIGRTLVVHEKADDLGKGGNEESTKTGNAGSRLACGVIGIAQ

Target: Flag-tagged SIRT1 wildtype (Sirtuin 1) (UniProt Q96EB6)
Experiment: co-IP; HA-tagged SOD1 co-transfected with Flag-tagged SIRT1 into HCT-116 cells, anti-Flag agarose, SOD1 detected by immunoblotting

binding: binds
Substance: HA-tagged SOD1 (from UniProt P00441 1-154) (enzyme)
